Test results taken from PubChem BioAssay AID2685 (National Center for Advancing Translational Sciences (NCATS), 2010).
The list shows a part of the results. Shown are side measurements of this screen, not its main read-out; they come without a call. Compounds called inactive in the main read-out are mostly missing here. Potencies come from curve fits of mixed quality, noted in brackets.

Test: qHTS Assay for Lipid Storage Modulators in Drosophila S3 Cells;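 as to cell number change: cells counted by Cell Tracker Red CMTPX staining in the red channel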
Settings: BODIPY lipid droplet fluorescence, 18-24 h; for cell number change: measured here: cell count max response, cells fed with added oleic acid
Method in brief: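 Drosophila S3 cells loaded with oleic acid (400 uM, as added) and compounds at several concentrations; lipid droplets imaged by 488-nm laser-scanning cytometry, 500–530 nm intensity and object ratio to cell channel. Percent activity normalized to 20 uM Triacsin C.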

[1] = measured here: cell number channel AC50, cells fed with added oleic acid
[2] = measured here: lipid fluorescence (Fed channel) AC50, cells fed with added oleic acid

SMILES	cell number change [%]	AC50 [1]	AC50 [2]
COc1ccccc1N(CC(=O)Nc1ccc2c(c1)OCO2)S(=O)(=O)c1ccccc1	-13.6	2.59 µM [falling, single point]	6.51 µM [falling, single point]
CC(C)(C)NC(=O)CN(C(=O)CS(=O)CC(=O)Nc1ccc(F)cc1)c1ccccc1 (stereo not drawn)	1.05	6.51 µM [falling, single point]	6.51 µM [falling, single point]
CCOc1cc(NC(=S)Nc2ccccc2)c(OCC)cc1NC(=O)c1ccccc1	-18.4	–	–
COc1ccc(CNC(=O)C2CCN(S(=O)(=O)c3ccc4c(c3)CC(C)N4C(=O)C3CC3)CC2)cc1 (stereo not drawn)	0.76	–	2.91 µM [rising, full curve, poor fit]
O=S(=O)(c1ccc(-c2nnco2)cc1)N1CCCCC1	1.39	–	–
Cc1cc(Cl)ccc1Oc1nc(-c2ccccc2)ncc1S(C)(=O)=O	–	–	0.58 µM [rising, single point]
COc1cc(CN2CCCC(C(=O)c3ccc4c5c(cccc35)CC4)C2)cc(OC)c1O (stereo not drawn)	-59.7	29.1 µM [falling, single point]	0.103 µM [rising, full curve, poor fit]
C=CCn1c(SCc2c(F)cccc2Cl)nnc1-c1ccco1	1.27	–	4.11 µM [rising, full curve]
Cc1ccc(C(=O)OC2CCOC2=O)cc1NC(=O)c1ccco1 (stereo not drawn)	3.44	–	3.66 µM [rising, single point]
CCOc1ccc(S(=O)(=O)N(CC)CC(=O)NCc2ccncc2)cc1C	21.8	–	16.4 µM [rising, partial curve]
Cc1ccnc(NC(=O)c2ccc(OCC3CCCO3)cc2)c1 (stereo not drawn)	9.64	–	–
CCC(C(=O)OC)n1cnc2c(oc3ccccc32)c1=O (stereo not drawn)	-9.44	–	6.51 µM [falling, single point]
Cc1ccc(OCC(=O)OCC(=O)c2ccccc2)cc1C	15.7	–	–
Cc1ccc(S(=O)(=O)NCCC(=O)N2CCCCCCC2)cc1	-18.7	–	0.291 µM [falling, full curve, poor fit]
Cc1cnc(NC(=O)c2cc3ccccc3o2)s1	32.6	6.51 µM [rising, single point]	6.51 µM [rising, single point]
CCOC(=O)N1CCN(CC(=O)n2c(C)c(C)c3ccccc32)CC1	-3.62	–	0.092 µM [falling, full curve, poor fit]
Cc1ccc(OC(=O)N2CCOCC2)cc1	14.9	–	0.0731 µM [rising, full curve, poor fit]
Cc1ccc(N2C(=O)c3ccccc3C(C)(C)C2=O)cc1	5.25	–	–
CCOc1ccc(Br)cc1S(=O)(=O)Nc1ccc(Cl)c(S(=O)(=O)N(CC)c2ccccc2)c1	-25.6	0.461 µM [falling, full curve, poor fit]	–
Cc1ccc(NC(=O)CNC2CCS(=O)(=O)C2)cc1C (stereo not drawn)	–	6.51 µM [rising, single point]	0.731 µM [falling, single point]
CN1C(=O)c2ccccc2C(C(=O)NCCCN2CCCC2)C1c1c[nH]c2ccccc12 (stereo not drawn)	5.8	–	3.66 µM [falling, partial curve]

Whole records, looked up by structure.
CN1C(=O)c2ccccc2C(C(=O)NCCCN2CCCC2)C1c1c[nH]c2ccccc12 (stereo not drawn) as listed: cell number change [%]: 5.8; AC50 [2]: 3.66 µM [falling, partial curve]
Cc1ccc(N2C(=O)c3ccccc3C(C)(C)C2=O)cc1 as listed: cell number change [%]: 5.25
CC(C)(C)NC(=O)CN(C(=O)CS(=O)CC(=O)Nc1ccc(F)cc1)c1ccccc1 (stereo not drawn) as listed: cell number change [%]: 1.05; AC50 [1]: 6.51 µM [falling, single point]; AC50 [2]: 6.51 µM [falling, single point]
CCC(C(=O)OC)n1cnc2c(oc3ccccc32)c1=O (stereo not drawn) as listed: cell number change [%]: -9.44; AC50 [2]: 6.51 µM [falling, single point]

Next part.

SMILES	cell number change [%]	AC50 [1]	AC50 [2]
O=C(NNC(=O)c1ccncc1)c1ccccc1	19.7	–	25.9 µM [rising, single point]
CC(C)(C)n1nnnc1C(c1cccs1)N1CCCc2ccccc21 (stereo not drawn)	-33.7	5.8 µM [falling, partial curve, poor fit]	6.51 µM [falling, partial curve, poor fit]
O=C(Nc1ccc2c(c1)OCO2)C1CCCN1C(=O)Nc1cccc(F)c1 (stereo not drawn)	2.62	–	–
CC(=O)Nc1ccc(NC(=O)COc2cc(O)c3c(c2)OC(C)(C)CC3=O)cc1	2.33	–	–
COc1cccc(C(=O)NC2CCCN(C3Cc4ccccc4C3)C2)c1OC (stereo not drawn)	–	–	0.13 µM [falling, full curve, poor fit]
Cc1cccc(NC(=O)C2CCCN(S(=O)(=O)c3cccs3)C2)c1C (stereo not drawn)	-2.25	–	29.1 µM [rising, single point]
COCCNC(=O)c1nn2c(C(F)(F)F)cc(-c3ccccc3)nc2c1Cl	43.2	32.6 µM [rising, partial curve, poor fit]	29.1 µM [rising, single point]
COc1ccc(CN2CCSCC2)c(OC)c1C	–	–	0.206 µM [rising, full curve, poor fit]
O=C(NCC1CCCCC1)c1cccc(S(=O)(=O)NCc2cccnc2)c1	–	0.00517 µM [rising, full curve, poor fit]	–
Cn1cccc1C(=O)NC1CCCCCC1	-6.64	–	3.26 µM [rising, partial curve]
Cc1c(Cl)cccc1NC(=S)NCCC(c1ccccc1)c1ccccc1	-11.9	–	32.6 µM [falling, partial curve]
COc1ccc(C(=O)Cc2cc3ccccc3oc2=O)cc1	–	–	3.66 µM [rising, full curve]
CC1(C)C(=O)Nc2ccccc2N1C(=O)COC(=O)C12CC3CC(CC(O)(C3)C1)C2	-13.3	6.51 µM [falling, single point]	–
COc1ccc(C(=O)Nc2ccc3oc(-c4cccc(F)c4)nc3c2)cc1OC	6.51	–	6.51 µM [rising, partial curve]
C=CCSc1nc2c(cnn2-c2ccc(C)c(C)c2)c(=O)[nH]1	-15.9	–	20.6 µM [falling, single point]
Cc1nnc(N/N=C/c2ccc(-c3ccc(Br)cc3)o2)n1N	26.8	2.31 µM [rising, partial curve, poor fit]	–
CCc1nonc1NC(=O)c1oc2ccc(Br)cc2c1C	-16.2	–	–
COc1ccc(C(=O)OCC(=O)Nc2cc(S(=O)(=O)N3CCOCC3)ccc2N2CCCC2)cc1	–	–	5.8 µM [falling, single point]
COc1ccc(Cn2c(=S)[nH]c3ccccc32)cc1	-7.87	–	0.231 µM [rising, partial curve]
Nc1nc(CN2CCN(c3ccccn3)CC2)nc(Nc2ccc(F)cc2)n1	19.6	–	–
O=C(Nc1ccc(N2CCOCC2)cc1)C1(c2ccc(Cl)cc2)CCC1	–	3.66 µM [rising, partial curve, poor fit]	5.8 µM [rising, partial curve, poor fit]

SMILES	cell number change [%]	AC50 [1]	AC50 [2]
Cc1cc(OCCCC(=O)Nc2cccc(-n3cnnn3)c2)ccc1Cl	–	–	5.17 µM [falling, single point]
CCN(c1ccccc1)S(=O)(=O)c1ccc(F)cc1C	-74.1	10.3 µM [falling, partial curve]	6.51 µM [falling, single point]
COC(=O)CNC(=O)COC(=O)/C=C/c1ccccc1[N+](=O)[O-]	–	0.651 µM [falling, single point]	–
Cc1ccc2c(c1)c1c(n2CC(O)CNC(C)(C)C)CCCC1 (stereo not drawn)	16.1	–	–
CCC(C)Nc1nc(N)c([N+](=O)[O-])c(N2CCCCCC2)n1 (stereo not drawn)	-25.3	–	29.1 µM [falling, single point]
COCCn1c(SCC(=O)NC(=O)NC(C)C)nc2ccccc21	-21.9	0.164 µM [falling, full curve, poor fit]	–
CCCn1c(N2CCN(S(=O)(=O)Cc3ccccc3)CC2)nc2ccccc21	31.9	0.731 µM [rising, partial curve]	–
Cc1cc(C(F)(F)F)nc(SCC(=O)Nc2nccs2)n1	16.6	–	0.184 µM [rising, full curve, poor fit]
NC(=O)c1c(NC(=O)CSc2nnc(-c3ccco3)n2-c2ccccc2)sc2c1CCC2	–	0.461 µM [rising, single point]	9.2 µM [rising, partial curve]
Cc1cccc2cc(CN(CC3CCCO3)S(=O)(=O)c3ccccc3)c(=O)[nH]c12 (stereo not drawn)	15.6	–	29.1 µM [rising, single point]
CC1CCCC(NC(=O)CSc2nnc(C(F)(F)F)n2C)C1C (stereo not drawn)	0.645	–	4.11 µM [rising, single point]
CCOc1ccccc1N1CCN(c2nc(N)c(C#N)c(CC#N)c2C#N)CC1	–	0.259 µM [rising, full curve]	0.82 µM [rising, full curve]
O=C(/C=C/Nc1ccccc1Br)c1ccccn1	-31.6	4.11 µM [falling, full curve, poor fit]	–
O=C(NCCN1CCCCC1)c1ccc(Oc2cc(Cl)cc(Cl)c2)o1	-32.7	18.4 µM [falling, partial curve, poor fit]	16.4 µM [falling, partial curve]
Cc1ccc(S(=O)(=O)NC(=O)Nc2cc(C)no2)cc1	-28.5	0.206 µM [falling, full curve, poor fit]	20.6 µM [falling, single point]
CCCn1nc(C(=O)N2CCc3ccccc32)c2ccccc2c1=O	-12.8	–	6.51 µM [falling, full curve]
COc1ccc(C(=O)OCc2nc(N)nc(Nc3ccccc3C)n2)cc1OC	9.6	–	0.0184 µM [rising, single point]
Cc1n[nH]c(C)c1CCN(C)C(=O)C1CCC(=O)N(CC2CCCCC2)C1 (stereo not drawn)	15.3	–	18.4 µM [rising, single point]
N#Cc1ccc(S(=O)(=O)N2CCCN(c3nc4ccc(Cl)cc4s3)CC2)cc1	9.78	–	6.51 µM [falling, single point]
